Data published in patent US10865218B2, “Fluoride fluorescence probe” (The Procter & Gamble Company, priority 2017, dated 2020).

How the values were obtained:
Type in all cases: physicochemical
[1] = Concentration dependence of fluorescence and detection limit, NaF
[2] = Fluoride ion sensing: fluorescence and absorption spectra of the probes with NaF
Description: The procedure for fluoride ion sensing is described. Stock solutions of inventive compounds R1-R3 (1 mM) are prepared in DMSO. The test solutions of the inventive compounds R1-R3 (10 μM) in […] DMSO-HEPES solution (3/2, v/v, 10 mM HEPES, pH=7.2) are prepared by placing stock solutions in 10-mL volumetric flask, and diluting with buffer solution. The resulting solutions are shaken well and incubated at room temperature for 50 minutes before recording the spectra.
Sodium fluoride (NaF) is used as a fluoride source for the fluoride ion sensing test. Stock solution of NaF (1 mM) is prepared in deionized water. The test solutions of the inventive compounds R1-R3 (10 μM) with NaF (500 μM) are prepared by placing stock solutions in 10-mL volumetric flask, and diluting with buffer solution. The resulting solutions are shaken well and incubated at room temperature for 50 minutes before recording the spectra.
UV-visible spectra are recorded on a Shimadzu UV-2550 spectrometer. Steady-state emission experiments at room temperature are measured on an Edinburgh instrument FLS-920 spectrometer with a Xe lamp as an excitation source. Unless otherwise noted, for all measurements, the excitation wavelength is 620 nm and the emission wavelength is collected from 640 to 780 nm.
The color changed from colorless to blue, which can be visible by naked eyes. […]

[3] = Concentration dependence of fluorescence and detection limit, MFP
[4] = Selectivity to F− from different sources
[5] = Anion selectivity: fluorescence and absorption spectra with various anions; settings: R3 10 μM
[6] = R3 10 μM, 50 min, DMSO-HEPES pH 7.2

Structure (SMILES): CN(C)c1ccc2c(c1)Sc1cc(N(C)C)ccc1N2C(=O)OCc1ccc(O[Si](C)(C)C(C)(C)C)cc1 [Compound R3, 4-((tert-butyldimethylsilyl)oxy)benzyl 3,7-bis(dimethylamino)-10H-phenothiazine-10-carboxylate]
- linear range of fluorescence intensity at 690 nm versus NaF concentration [1, 6]: 0 to 50 µM
- detection limit for NaF ([1]; calculated): 0.11 µM
- fluorescent intensity change at 690 nm with addition of F^− ([2]; R3 10 μM, different NaF concentrations and times, DMSO-HEPES pH 7.2): dependent on both the reaction time and concentration of NaF
- fluorescent intensity (at 690 nm) and absorbance (at 667 nm) change, compared among probes ([2]; after reaction with 500 μM NaF for 50 mM (so in the source)): much larger than that of R1 and R2
- linear range of fluorescence intensity at 690 nm versus MFP concentration [3, 6]: 0 to 1000 µM
- detection limit for MFP ([3]; calculated): 1.23 µM
- fluorescence intensity change for MFP after 120 min compared with NaF after 30 min ([4]; 690 nm): still smaller than that for NaF after incubated for 30 min
- difference in fluorescent performance between inorganic fluoride sources NaF, KF and CsF ([4]; R3 10 μM, 500 μM fluoride, 50 min): no significant differences
- fluorescence intensity change induced by MFP relative to that induced from NaF ([4]; both incubated for 30 min, 690 nm): 9.7%
- fluorescence and absorbance response to F^− ([5]; 500 μM F^−, only F^− among the analytes): drastic increase of both fluorescence intensity and absorbance
- fluorescence and absorbance response to all other anions ([5]; 500 μM analyte (CO3^2−, PO4^3−, H2PO4^−, NO3^−, NO2^−, SO4^2−, SO3^2−, S2O3^2−, CH3COO^−, Cl^−, Br^−, I^−, N3^−, SCN^−, C2O4^2−, BSA)): almost no change on fluorescence or absorbance
